The record followed here is paper PMC10350061.

These are yes or no findings as the source states them, for the method shown. In cells and extracts the contact can be indirect. A result given as binding can be weak or reduced; the word gives no strength.

The target of the test is Numb (mouse (endogenous in C2C12)). The experiment in a line: co-IP; endogenous Numb precipitated with anti-Numb antibody from lysate of C2C12 myotubes (three independent samples, other than those for LC/MS/MS); Western blot with anti-Septin 7 (Proteintech 13818-1-AP); control IgG. (A western blot detects proteins with antibodies after separation by electrophoresis.)

B1: Septin 7 (protein, UniProt O55131 1-436)
chain: MSVSARSAAAEERSVNCGTMAQPKNLEGYVGFANLPNQVYRKSVKRGFEFTLMVVGESGLGKSTLINSLFLTDLYSPEYPGPSHRIKKTVQVEQSKVLIKEGGVQLLLTIVDTPGFGDAVDNSNCWQPVIDYIDSKFEDYLNAESRVNRRQMPDNRVQCCLYFIAPSGHGLKPLDIEFMKRLHEKVNIIPLIAKADTLTPEECQQFKKQIMKEIQEHKIKIYEFPETDDEEENKLVKKIKDRLPLAVVGSNTIIEVNGKRVRGRQYPWGVAEVENGEHCDFTILRNMLIRTHMQDLKDVTNNVHYENYRSRKLAAVTYNGVDNNKNKGQLTKSPLAQMEEERREHVAKMKKMEMEMEQVFEMKVKEKVQKLKDSEAELQRRHEQMKKNLEAQHKELEEKRRQFEEEKANWEAQQRILEQQNSSRTLEKNKKKGKIF
Regarding B1, the binding result was “binds”.
